Reference: patent US20250215015A1, “COMPOSITIONS OF STAUROSPORINE ANALOGS AND USES THEREOF” (THE REGENTS OF THE UNIVERSITY OF CALIFORNIA, priority 2022, published 2025)

Columns and labels:
[1] = system: established and primary GBM lines, and breast and prostate cell lines; experiment: Cell killing by free and liposomal STS; assay type: cell-based; settings: range over GBM
Protocol: The IC50 values ranged from 1-5 nM and were very close between free and liposomal STS.

[2] = Toxicity in mice: body weight and liver enzymes; assay type: in vivo; settings: 0.8 mg/kg 3 times per week for two weeks
Text: Weight declined with STS but not PBS or LSTS. Bottom panel is bar graph depicting liver enzymes ALT/AST before and after treatment. For free STS the post treatment levels were flagged as abnormal (stars). ALT/AST enzyme levels were normal with empty liposomes (control) and LSTS. Reference levels shown by dashed lines.

caspase 3/7 = experiment: Apo-one caspase 3/7 assay; assay type: cell-based; settings: U87 cells, 12 hours, 200 nM
Text: FIG. 5A: Western blot analysis for Akt, P-Akt, cleaved PARP. […] Representative blot from two independent experiments is shown.

With `CN[C@@H]1C[C@H]2O[C@@](C)([C@@H]1OC)n1c3ccccc3c3c4c(c5c6ccccc6n2c5c31)C(=O)NC4` [STS, Staurosporine] the IC50 [1] was 1 to 5 nM, the AST/ALT liver enzymes [2] was “elevated” and the “caspase 3/7 activity” value (caspase 3/7) was “increased caspase 3/7 activity”.
